Measured values from article PMC7140707.
These are yes or no findings as the source states them, for the method shown. In cells and extracts the contact can be indirect. Some binding calls cover weakened binding; strength is not graded here. Sequences can lack the tags named with a protein.

Protein sequences, listed by entry. Tags and fused reporters are not part of them.
UniProt Q03558: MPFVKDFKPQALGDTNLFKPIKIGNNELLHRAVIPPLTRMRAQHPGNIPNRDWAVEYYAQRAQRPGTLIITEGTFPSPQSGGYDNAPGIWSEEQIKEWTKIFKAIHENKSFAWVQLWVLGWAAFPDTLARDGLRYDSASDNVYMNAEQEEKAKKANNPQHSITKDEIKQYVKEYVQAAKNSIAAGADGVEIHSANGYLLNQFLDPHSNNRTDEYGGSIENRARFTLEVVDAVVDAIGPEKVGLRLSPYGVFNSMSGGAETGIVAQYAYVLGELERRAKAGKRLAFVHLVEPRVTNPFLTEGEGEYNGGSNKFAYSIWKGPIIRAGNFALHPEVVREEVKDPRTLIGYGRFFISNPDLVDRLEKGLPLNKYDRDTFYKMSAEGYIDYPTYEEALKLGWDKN

Columns and labels:
Assay in all cases: co-IP; TAP pull-down: extracts of yeast cells expressing a TAP-tagged protein and tagged Gis1 or Gis1 deletion protein incubated with IgG-Sepharose beads, 4 °C; Western blot with anti-TAP, anti-FLAG or anti-Myc
[1] = biological target: TAP-tagged Oye2 (S. cerevisiae) (UniProt Q03558)
[2] = biological target: T1, TAP-tagged Pbp4 (S. cerevisiae) (UniProt Q07362)
T1 sequence: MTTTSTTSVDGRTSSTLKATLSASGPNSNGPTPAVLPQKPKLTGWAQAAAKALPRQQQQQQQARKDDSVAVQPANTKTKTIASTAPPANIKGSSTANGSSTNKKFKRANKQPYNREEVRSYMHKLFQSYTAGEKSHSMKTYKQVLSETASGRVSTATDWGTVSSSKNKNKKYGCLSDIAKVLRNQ

[3] = biological target: T2, TAP-tagged Mot3 (S. cerevisiae) (UniProt P54785)
T2 sequence: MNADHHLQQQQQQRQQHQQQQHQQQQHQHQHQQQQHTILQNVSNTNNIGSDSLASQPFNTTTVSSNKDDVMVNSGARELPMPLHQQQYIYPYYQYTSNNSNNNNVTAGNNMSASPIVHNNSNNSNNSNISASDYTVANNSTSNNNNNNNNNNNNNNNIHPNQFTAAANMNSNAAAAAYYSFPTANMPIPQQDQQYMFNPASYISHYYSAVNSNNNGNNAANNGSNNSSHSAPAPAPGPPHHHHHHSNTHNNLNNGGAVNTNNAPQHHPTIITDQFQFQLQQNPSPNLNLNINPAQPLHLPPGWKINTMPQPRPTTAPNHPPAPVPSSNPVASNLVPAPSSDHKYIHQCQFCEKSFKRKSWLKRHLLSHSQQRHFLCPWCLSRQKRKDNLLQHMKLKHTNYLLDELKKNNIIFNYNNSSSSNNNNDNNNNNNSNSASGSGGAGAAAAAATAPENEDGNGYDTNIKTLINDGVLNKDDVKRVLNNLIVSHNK

Measured: binding

B1: FLAG-tagged Gis1 (protein, UniProt Q03833 1-894)
chain: MEIKPVEVIDGVPVFKPSMMEFANFQYFIDEITKFGIENGIVKVIPPKEWLELLEGSPPAESLKTIQLDSPIQQQAKRWDKHENGVFSIENEYDNKSYNLTQWKNLAESLDSRISQGDFNDKTLKENCRVDSQQDCYDLAQLQILESDFWKTIAFSKPFYAVDENSSIFPYDLTLWNLNNLPDSINSSNRRLLTGQSKCIFPWHLDEQNKCSINYLHFGAPKQWYSIPSANTDQFLKILSKEPSSNKENCPAFIRHQNIITSPDFLRKNNIKFNRVVQFQHEFIITFPYCMYSGFNYGYNFGESIEFILDQQAVVRKQPLKCGCGNKKEERKSGPFSNLSYDSNESEQRGSITDNDNDLFQKVRSFDELLNHSSQELQNLEDNKNPLFSNINMNRPQSSSLRSTTPNGVNQFLNMNQTTISRISSPLLSRMMDLSNIVEPTLDDPGSKFKRKVLTPQLPQMNIPSNSSNFGTPSLTNTNSLLSNITATSTNPSTTTNGSQNHNNVNANGINTSAAASINNNISSTNNSANNSSSNNNVSTVPSSMMHSSTLNGTSGLGGDNDDNMLALSLATLANSATASPRLTLPPLSSPMNPNGHTSYNGNMMNNNSGNGSNGSNSYSNGVTTAAATTTSAPHNLSIVSPNPTYSPNPLSLYLTNSKNPLNSGLAPLSPSTSNIPFLKRNNVVTLNISREASKSPISSFVNDYRSPLGVSNPLMYSSTINDYSNGTGIRQNSNNINPLDAGPSFSPLHKKPKILNGNDNSNLDSNNFDYSFTGNKQESNPSILNNNTNNNDNYRTSSMNNNGNNYQAHSSKFGENEVIMSDHGKIYICRECNRQFSSGHHLTRHKKSVHSGEKPHSCPRCGKRFKRRDHVLQHLNKKIPCTQEMENTKLAES
binds: all assays above
